Measurements reported in PubChem BioAssay AID2685 (National Center for Advancing Translational Sciences (NCATS), 2010).
Several values for one entry are separate records, joined by “and”; a condition that tells them apart may be missing. Equal values may be shown once. This is one part of the list. These are further read-outs of the screen, such as a control signal, another cell line or another target. No call is given for them. Compounds called inactive in the main read-out are mostly missing here. The note in brackets gives the kind of curve behind each potency; many fits are weak.

Assay: qHTS Assay for Lipid Storage Modulators in Drosophila S3 Cells;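 on cell number change: cells counted by Cell Tracker Red CMTPX staining in the red channel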
Details: BODIPY lipid droplet fluorescence, 18-24 h; for cell number change: measured here: cell count max response, cells fed with added oleic acid
In short: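 Laser-scanning cytometry quantifies lipid droplet accumulation (500–530 nm total intensity; droplet/cell object ratio) in oleic acid-fed (400 uM added) Drosophila S3 cells treated with a concentration series. 20 uM Triacsin C defined 100% inhibition.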

[1] = measured here: cell number channel AC50, cells fed with added oleic acid
[2] = measured here: lipid fluorescence (Fed channel) AC50, cells fed with added oleic acid

Structure (SMILES) | AC50 [1] | cell number change | AC50 [2]
COC(CNC(=O)c1cccc2c1C(=O)N(Cc1cccnc1)C2)OC | 6.51 µM [rising, single point] |  | 
CCN1C(=O)[C@H]2[C@@H](c3ccc(C)cc3)N3C(=O)N(c4ccccc4)C(=O)[C@@]3(C)[C@H]2C1=O |  | -8.74% | 
O=C(N/N=C/C=C\c1ccccc1[N+](=O)[O-])c1ccccn1 |  | 22.7% | 4.61 µM [rising, full curve, poor fit]
CS(=O)(=O)N(CC(=O)NCCSC1CCCCC1)c1cccc(F)c1 |  | -13% | 0.00461 µM [falling, full curve, poor fit]
Cc1ccc(S(=O)(=O)NCCCNC(=O)N2CCOCC2)cc1 |  | -15.1% | 2.31 µM [falling, full curve]
O=C(CSc1nnc2scc(-c3ccc(Cl)cc3)n12)NCc1ccc2c(c1)OCO2 | 29.1 µM [falling, single point] | -35.2% | 
CCCCc1cc(=O)oc2cc(OCC(=O)N(CC)CC)c(Cl)cc12 | 0.58 µM [rising, single point] |  | 1.3 µM [rising, full curve, poor fit]
COc1cccc(N(C(=O)c2snc(C(N)=O)c2N)C(C(=O)NCC2CCCO2)c2ccc(C)o2)c1 (configuration not stated) |  | 17.4% | 0.651 µM [rising, full curve]
O=C(NNS(=O)(=O)c1ccc(F)cc1)c1ccccc1F |  | -8.52% | 
COc1ccc(OC)c(NC(=S)N2CCc3ccccc3C2)c1 |  | 14.8% | 16.4 µM [rising, partial curve]
CCOC(=O)c1cccc(C2=CC(=O)C[C@H](c3ccc(OC)c(OC)c3)C2)c1 |  | 8.04% | 29.1 µM [falling, single point]
COc1ccc(NC(=O)NNC(=O)CCC(=O)Nc2ccccc2Cl)cc1 | 5.8 µM [falling, single point] | -1.64% | 4.61 µM [falling, single point]
Cc1cc(C)cc(NC(=S)NCc2ccc(F)cc2)c1 | 29.1 µM [falling, single point] | -60.4% | 
Nc1nc(NS(=O)(=O)c2ccc(Cl)cc2)nn1-c1ccccc1 |  | 9.38% | 6.51 µM [falling, single point]
Cc1[nH]nc(-c2ccc(OCc3cnn(-c4ccccc4)c3)cc2O)c1Oc1ccc(Cl)cc1 | 32.6 µM [falling, partial curve, poor fit] | -40% | 20.6 µM [rising, single point]
O=C(CCC1CCCC1)Nc1ccon1 |  | 6.47% | 0.0517 µM [rising, partial curve, poor fit]
O/N=C/c1cc(Cl)ccc1OCc1cccc2ccccc12 | 20.6 µM [falling, partial curve, poor fit] | -32.9% | 
Cc1ccc(-c2cc(C(=O)NCc3cn(C)nc3C)c3cc(Br)ccc3n2)cc1 |  | 5.68% | 0.0731 µM [rising, full curve]
N/C(=N\OC(=O)COc1ccccc1)c1ccccn1 |  | 10.6% | 
COc1ccc(-c2nc(Cc3ccc(Cl)cc3)no2)cc1OC |  | -22% | 
CN(C)CCN(C(=O)CCc1ccccc1)c1nc2c(F)cc(F)cc2s1 | 6.51 µM [falling, single point] | -9.49% | 

Entries listed so far that have fluorine (4):
Structure (SMILES) | AC50 [1] | cell number change | AC50 [2]
CS(=O)(=O)N(CC(=O)NCCSC1CCCCC1)c1cccc(F)c1 |  | -13% | 0.00461 µM [falling, full curve, poor fit]
O=C(NNS(=O)(=O)c1ccc(F)cc1)c1ccccc1F |  | -8.52% | 
Cc1cc(C)cc(NC(=S)NCc2ccc(F)cc2)c1 | 29.1 µM [falling, single point] | -60.4% | 
CN(C)CCN(C(=O)CCc1ccccc1)c1nc2c(F)cc(F)cc2s1 | 6.51 µM [falling, single point] | -9.49% | 

Later entries:

Structure (SMILES) | AC50 [1] | cell number change | AC50 [2]
CC(=O)c1c(C)[nH]c(C(=O)OCC(=O)NCc2ccc3c(c2)OCO3)c1C |  | -17.5% | 0.0259 µM [rising, full curve, poor fit]
COc1ccccc1CC(=O)NCC(c1ccco1)N1CCCCC1 (configuration not stated) |  | -21.4% | 29.1 µM [rising, single point]
CN(c1ccccc1)S(=O)(=O)c1cccc(NC(=O)Cc2n[nH]c(=O)c3ccccc23)c1 |  | -12.6% | 1.46 µM [rising, partial curve]
CCOC(=O)c1ccc(N(CC(=O)NCC2CCCO2)C(=O)CCC(=O)Nc2cc(C)on2)cc1 (configuration not stated) |  | 21.7% | 
Cc1cc(Br)c(S(=O)(=O)NCCN2CCOCC2)cc1C | 0.731 µM [falling, full curve, poor fit] | 13.4% | 0.731 µM [falling, full curve]
CC(C)C(c1nnnn1C1CCCC1)N1CCN(c2ccccc2F)CC1 (configuration not stated) | 0.58 µM [rising, full curve, poor fit] | 22.4% | 5.17 µM [rising, full curve]
CC(C)OC(=O)CCCN1C(=O)c2ccc(N)cc2C1=O |  | -8.09% | 7.31 µM [falling, single point]
COC(=O)c1[nH]c(C)c(/C(O)=C2\C(=O)C(=O)N(CCN(C)C)C2c2cccs2)c1C (configuration not stated) | 3.66 µM [falling, single point] | 0.996% | 
CCn1cnc2cc(NCc3ccc(C)cc3)ccc21 |  | -13.8% | 29.1 µM [rising, single point]
Cn1cnc(S(=O)(=O)N2CCN(C(c3ccc(F)cc3)c3ccc(F)cc3)CC2)c1 |  | 4.89% | 0.00461 µM [falling, full curve, poor fit]
COc1cccc(NC(=O)N2CCCC(C(=O)Nc3ccccc3OC)C2)c1 (configuration not stated) |  | -18.3% | 29.1 µM [falling, single point]
CC1CN(C(=O)COC(=O)c2ccc(N(C)C)cc2)CC(C)O1 (configuration not stated) |  | 85.8% | 
NC(=O)c1cc(S(=O)(=O)N2CCOCC2)cs1 | 1.16 µM [rising, full curve] | -10.6% | 8.2 µM [rising, partial curve, poor fit]
COc1cccc(OC)c1C(=O)NNC(=O)c1ccccc1-n1cccc1 |  | -17.4% | 0.103 µM [falling, full curve, poor fit]
O=C(CSc1ncnc2c1cnn2-c1ccc(F)cc1)NCC1CCCO1 (configuration not stated) |  | -26.6% | 
CC1CN(C(=O)COC(=O)c2cc([N+](=O)[O-])ccc2Cl)CC(C)O1 (configuration not stated) | 29.1 µM [rising, single point] | 51% | 16.4 µM [rising, single point]
CCOC(=O)N1CCC(Nc2c(NCCCN3CCN(c4ccc(OC)cc4)CC3)c(=O)c2=O)CC1 |  | 2.81% | 6.51 µM [falling, single point]
CCN1C(=NCCc2ccccn2)N[C@@H](c2cccc(F)c2)C(C(=O)OC)=C1C |  | -5.09% and 14.4% | 23.1 µM [rising, single point] and 29.1 µM [rising, single point]
[N-]=[N+]=CC(=O)CC(c1ccccc1)N1C(=O)c2ccccc2C1=O (configuration not stated) | 0.366 µM [falling, full curve] | -179% | 29.1 µM [falling, single point]
CCNC(=O)C1CC(=O)N(Cc2ccc3c(c2)OCO3)C(=Nc2ccc(F)cc2)S1 (configuration not stated) | 0.82 µM [rising, single point] |  | 
COc1cccc(NC(=O)N2CCCC2C(=O)NC23CC4CC(CC(C4)C2)C3)c1 (configuration not stated) | 1.64 µM [rising, partial curve, poor fit] | 7.69% | 

Structure (SMILES) | AC50 [1] | cell number change | AC50 [2]
CCOC(=O)C1CCN(C(C(=O)NC2CCCC2)c2ccc(C)cc2)CC1 (configuration not stated) | 16.4 µM [falling, partial curve, poor fit] | -43% | 
Cc1cc(C)c(S(=O)(=O)NCCSCc2ccco2)c(C)c1 |  | -2.75% | 0.164 µM [rising, full curve, poor fit]
Cc1cccc(NC(=O)C2CCN(c3nc(C)cc(C)n3)CC2)c1 | 1.46 µM [rising, partial curve] |  | 
Cc1[nH][nH]c(=O)c1C(c1c(C)[nH][nH]c1=O)c1cn(Cc2ccc(Cl)c(Cl)c2)c2ccccc12 |  | -3.81% | 16.4 µM [falling, single point]
Cc1ccc(CCNC(=O)CCNS(=O)(=O)c2ccc3c(c2)c(=O)n(C)c(=O)n3C)cc1 | 0.13 µM [rising, partial curve, poor fit] | -13.2% | 
COc1cc(F)c(S(=O)(=O)N2CCOc3ccccc32)cc1OC |  | 9.6% | 5.17 µM [rising, single point]
COc1ccc(-c2noc(CNS(=O)(=O)c3ccc(NC(C)=O)cc3)n2)cc1OC |  | -5.38% | 
C=CCC1(C#N)C(=S)NC2=C(C(=O)CC(C)(C)C2)C1c1ccc(Br)cc1 (configuration not stated) | 20.6 µM [rising, partial curve, poor fit] | 58.1% | 
CC(C)[C@H](NC(=O)[C@@H]1CSC2c3ccccc3C(=O)N21)C(=O)NCc1ccco1 (some centres not stated) |  | 11.8% | 29.1 µM [rising, partial curve, poor fit]
FC(F)(F)c1ccccc1NC(=S)Nc1cccc(Cl)c1 |  | -46.7% | 
CCOC(=O)CSc1nnc(COc2ccc3ccccc3c2)o1 |  | 6.32% | 
Cc1cc(Br)ccc1SCC(=O)OCC(=O)NC1CCCC1 |  | -14.4% | 
CCc1ccc(OCC(=O)Nc2ccc3oc(=O)ccc3c2)cc1 |  | -28.9% | 
CCCCN(C(=O)c1ccc(C)o1)c1c(N)n(CCCC)c(=O)[nH]c1=O |  | -5.6% | 
CCCCCCCN1C(Nc2ccccc2)=NC[C@@H]1CC(C)C |  | -4.79% | 
CCOc1cc(N2CCOCC2)c(OCC)cc1NC(=O)c1ccccc1 | 0.731 µM [falling, single point] | 46.1% | 20.6 µM [rising, partial curve]
COc1cccc(CN2CCN(CC(=O)NCCc3ccccc3)CC2)c1 |  | -1.1% | 
COc1cc(/C=C2\NC(=S)N(C)C2=O)ccc1OCc1ccccc1F |  | 3.6% | 
CCOC(=O)/C(=N\Nc1ccc(Br)cc1)N1CCN(c2ccccc2OC)CC1 | 32.6 µM [rising, single point] | 36.2% | 25.9 µM [rising, single point]
